## Binding screen against folded nucleic acids

Source: the ROBIN nucleic acid binder screens (doi:10.1002/anie.202211358).

Oligonucleotides screened, 5′ to 3′:
TPP: TPP riboswitch RNA three-way junction, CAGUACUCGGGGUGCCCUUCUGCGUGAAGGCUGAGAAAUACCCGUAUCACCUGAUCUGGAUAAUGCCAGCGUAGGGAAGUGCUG. Hit rate about 0.7% of about 24,000 compounds.

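Compounds were printed on reactive glass slides in duplicate spots, a dye-labelled oligonucleotide was laid over them, and the fluorescence left after washing was read. The data file lists only calls. An earlier report of the laboratory on the PreQ1, TPP and SAM-II riboswitches (doi:10.1038/s41467-019-09493-3) used 1 µM RNA for 2 h and required a mean Z-score above 3 (spot signal-to-noise against the whole library), a score well above that on a control array, and duplicate spots agreeing (coefficient of variation under 100); it then also set aside compounds that hit other targets, which this list keeps. The cut-offs behind this list may differ. A missing hit is not proof of no binding, and a hit is not a measured affinity.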 Key: hit = hit, none = tested without a hit. Compounds were drawn at random from those tested, without regard to their results.

Compound	TPP
COc1cccc2c(Nc3cccc(Cl)c3C)cc(C)nc12	none
CC1(C)Cc2nc3sc4c(NCC5CCCO5)ncnc4c3cc2CO1 (centres undefined)	none
OC1COCCN(Cc2ccc(-c3cc[nH]n3)s2)C1 (centres undefined)	none
CNc1nc(N(C)C)nc(-n2cnc(SCCOc3ccc(C)cc3)n2)n1	none
COc1cc(CC(=O)C(=O)O)oc(=O)c1	none
Cn1ncc(N2CCN(C(=O)C3NCCc4[nH]cnc43)CC2)cc1=O (centres undefined)	none
c1cncc(NCCNc2nc(C3CCCC3)nc3c2CNC3)c1	none
Cc1nc(CCN)cc(NCC2CC(=O)N(C3CCCC3)C2)n1 (centres undefined)	none
CCc1nnc2c3ccccc3nc(NCCc3ccc(OC)c(OC)c3)n12	none
Cc1cccc(NC(=O)Cn2nnc(C(=O)Nc3ccc(C)c(C)c3)c2N)c1	none
CCN(CC)CCN1c2ccccc2Sc2ccc3ccccc3c21	none
Cc1cc(C)n(-c2nc(C)c(C(=O)N(CCO)Cc3ccccc3)s2)n1	none
CCn1nc(C)c(-c2cc(-c3cc(C#N)n(C)c3)c(C#N)c(N)n2)c1C	none
CCc1cccc(CC)c1NC1=NS(=O)(=O)c2ccccc21	none
O=C(Cn1cccn1)N1CC[C@@H](c2ccc3ccccc3c2)[C@H](O)C1	none
CN(Cc1cc2n(n1)CCNC2)CC1CCN(c2ccccc2)C1 (centres undefined)	none
NC1=C(c2nc3ccccc3[nH]2)C(=O)CN1c1cccc(O)c1	none
CC(C)[C@@H]1CN(C(=O)c2ccc(SCCO)cc2)C[C@H]1N(C)C	none
O=C1c2cccc3c(N4CCCCC4)ccc(c23)C(=O)N1CCO	none
OCc1ccc(-c2nccn2CCc2nc(-c3ccncc3)n[nH]2)o1	none
COc1ccc(CNc2ccc(N3CCOCC3)cc2)cc1	none
NC1=C(c2nc3ccccc3[nH]2)C(=O)CN1Cc1ccc2c(c1)OCO2	none
Cc1ccc2nc(-c3ccccn3)c(Nc3ccccc3)n2c1	none
COc1ccc(CNCc2ccccc2C(F)(F)F)cc1	none
Cc1cc2ncn(CC(O)COc3ccccc3C)c2cc1C (centres undefined)	none
c1ccc(-c2nc3c(c(NCCc4cscn4)n2)CCNCC3)cc1	none
Cc1ccc(CNc2ccc(C(=O)NCc3cnc(C)cn3)cc2)cc1	none
c1ccc(-c2nccn2CCCNc2cccnc2)nc1	none
O=C1CCC2(CCCN(CCOc3ccc(Cl)cc3)C2)CN1CCO (centres undefined)	none
CC(c1ccccc1)C1C(C#N)=C(N)Oc2[nH]nc(-c3ccccc3)c21 (centres undefined)	none
CCOC(=O)c1sc2nc3c(cc2c1N)COC(C(C)C)C3 (centres undefined)	none
O=C([O-])c1nc(=O)[nH]c(=O)[nH]1	none
COc1ccc(CNc2ccc(N3CCN(C(C)=O)CC3)cc2)cc1OC	none
CCc1ccccc1NC(=O)c1cnn(C(=O)c2ccccc2)c1N	none
CCc1cnc(NC[C@H]2C[C@@H](CO)N(C)[C@H]2c2ccccc2F)nc1	none
CC(CCc1ccc(O)cc1)NC1CC(C)(C)NC(C)(C)C1 (centres undefined)	none
Nc1cc(C(=O)NC2CC2)ccc1-n1ccnc1	none
CCCNS(=O)(=O)Nc1ncnc(OCCOc2ncc(Br)cn2)c1-c1ccc(Br)cc1	none
Cn1c(C(=O)N2CCCC(N)CC2)cc2cc(F)ccc21 (centres undefined)	none
CNC(=O)c1nn(-c2ccccc2Cl)nc1CO	none
Cc1cc(C)c(C#N)c(N2CCN(CCO)CC2)n1	none
CCC(O)c1ccc(-c2ccc(C(N)=O)c(Cl)c2)cc1 (centres undefined)	none
N[C@H]1CN(c2ncc(F)c(N3CCOCC3)n2)C[C@@H]1C1CC1	none
Cc1ccc(Nc2c(-c3cccc(O)c3)nc3cnccn23)c(C)c1	none
CC1=C(C(=O)OC(C)C)C(c2cccs2)C(C#N)=C(N)O1 (centres undefined)	none
COc1ccc(C)cc1NC(=O)c1nnn(Cc2ccc(Br)cc2F)c1N	none
O=C(O)[C@@H](c1ccc(OCc2ccc3ccccc3n2)cc1)C1CCCC1	none
CCc1ccc(C(=O)NCC2=CCN(CC(C)O)CC2)cc1 (centres undefined)	none
COc1ccc(NC(=O)NC2CC(C)(C)NC(C)(C)C2)c(OC)c1	none
O=C(C=Cc1cccnc1)NCCCCC1CCN(C(=O)c2ccccc2)CC1	none

Repeated from the top, 6 entries:

- COc1cccc2c(Nc3cccc(Cl)c3C)cc(C)nc12 | TPP: none
- CC1(C)Cc2nc3sc4c(NCC5CCCO5)ncnc4c3cc2CO1 (centres undefined) | TPP: none
- OC1COCCN(Cc2ccc(-c3cc[nH]n3)s2)C1 (centres undefined) | TPP: none
- CNc1nc(N(C)C)nc(-n2cnc(SCCOc3ccc(C)cc3)n2)n1 | TPP: none
- COc1cc(CC(=O)C(=O)O)oc(=O)c1 | TPP: none
- Cn1ncc(N2CCN(C(=O)C3NCCc4[nH]cnc43)CC2)cc1=O (centres undefined) | TPP: none